Structures are written as SMILES. The list shows a part of the results. These are further read-outs of the screen, such as a control signal, another cell line or another target. No call is given for them. Compounds called inactive in the main read-out are mostly missing here. Words in brackets tell the shape of the fitted curve; partial curves, single points and poor fits give uncertain potencies.

This assay in a line: IkB Signaling. To be noted: ABC-DLBCL IkBa-CBG/CBR dual luciferase ratio (green luciferase fused to IkBa over red control in OCI-Ly3 lymphoma cells), 4 h. In outline: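 Curves were fitted separately to fusion (green), unfused (red) and ratio luminescence, then classed by r2, magnitude and activity. Cells: OCI-Ly3, 4 h compound plus doxycycline at 37C; 10 uM MG-132 defined full response.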
The mark [1] stands for this setting: measured here: control luc red channel unless noted.
Where [2] appears, read: measured here: IkB-luc green channel.
The mark [3] stands for this setting: measured here: control luc red channel.

`COc1cc(C(=O)NCCSc2c(-c3ccccc3)[nH]c3ccccc23)cc(OC)c1OC`: the AC50 under setting [1] was 3.16 µM [falling, full curve].
Still for that read-out and setting: the value for `COc1ccc2[nH]cc(CCNc3nc(-c4cccc(NS(C)(=O)=O)c4)nc4ccccc34)c2c1` was 2.51 µM [falling, partial curve] [measured here: IkB-luc green channel]; that for `COc1ccc(N2CCN(C(c3cccs3)C(C)NC(=O)c3ccco3)CC2)cc1` (centres undefined) was 31.6 µM [falling, partial curve].
With `C=CC(=O)OCCOCCOC(=O)C=C`, the AC50 under setting [2] is 3.98 µM [rising, full curve] and the AC50 under setting [3] is 20 µM [falling, partial curve].
For `CC1CCN(S(=O)(=O)c2ccc3c(c2)N(CC(=O)N2CCN(c4ccc(Cl)cc4)CC2)C(=O)CO3)CC1`, the AC50 under setting [1] is 15.8 µM [falling, partial curve].
Regarding `Cc1ccc2cc(CN(Cc3ccco3)C(=O)c3ccccc3)c(=O)[nH]c2c1C`, the AC50 under setting [1] is 25.1 µM [falling, partial curve].
For `COc1ccc2[nH]cc(CCNC(=O)Nc3ccc(F)cc3)c2c1`, the half-maximal activity concentration (AC50) under setting [1] was 3.16 µM [falling, partial curve].
The same measure, in the same setting: the result for `Cc1ccc(C)c(N2CCN(C(=O)c3cc(S(=O)(=O)N4CCCCC4)cn3C)CC2)c1` reads 39.8 µM [falling, single point].
Regarding `O=C(c1ccc(CSc2nc3ccncc3n2Cc2ccccc2F)cc1)N1CCCCCC1`, under setting [1], the concentration at half-maximal activity (AC50) is 25.1 µM [falling, single point].
With `CC(C)S(=O)(=O)c1oc(-c2ccc(F)cc2)nc1S(=O)(=O)c1ccc(F)cc1`, under setting [1], the AC50 was 2 µM [falling, full curve].
As to `Cc1cccc(OCC(=O)N(Cc2cccc(Cl)c2)Cc2ccco2)c1C`, under setting [1], the half-maximal activity concentration (AC50) was 25.1 µM [falling, partial curve].
In the case of `O=C1COc2ccc(C(=O)CSc3nnc(-c4cccs4)n3Cc3ccccc3)cc2N1`, the half-maximal activity concentration (AC50) under setting [1] was 7.94 µM [falling, partial curve].
`Cc1ccc(S(=O)(=O)c2nc(-c3ccccc3)oc2N2CCCCCC2)cc1`: the AC50 under setting [1] was 31.6 µM [falling, partial curve].
`Cc1noc(/C=C/N(C)C)c1S(=O)(=O)N1CCCC(C(=O)NCc2ccc(F)cc2)C1` (centres undefined): the concentration at half-maximal activity (AC50) under setting [1] is 12.6 µM [falling, partial curve].
Take `Cc1ccccc1CSc1nc(-c2ccccc2)nc2c1Cc1c(CO)cnc(C)c1O2`: under setting [1], the AC50 is 0.126 µM [falling, full curve, poor fit].
Consider `Nc1c(C(=O)NC2CCCCC2)nsc1C(=O)OCC(=O)NC1CCCCC1`, for which the AC50 under setting [1] was 0.0631 µM [falling, full curve].
With `COc1cccc(-c2cc(C(=O)NCc3ccccc3)[nH]n2)c1`, under setting [1], the AC50 is 15.8 µM [falling, partial curve].
In the case of `CCOc1ccc(C(C)C)cc1S(=O)(=O)Nc1cccc(-c2ccc(N3CCOCC3)nn2)c1`, the AC50 under setting [1] was 0.1 µM [falling, full curve].
Same read-out and setting: the result for `Cc1ccc(NC(=O)C(Cc2ccccc2)NS(=O)(=O)c2ccc3c(c2)c(=O)n(C)c(=O)n3C)cc1` (centres undefined) reads 15.8 µM [falling, partial curve]; that for `CCN(C(=O)c1cc(S(=O)(=O)N2CCOCC2)cn1C)c1ccc(OC)cc1`, 2.51 µM [falling, partial curve, poor fit].
In the case of `CCCC(=O)Oc1c(Sc2ccc(Cl)cc2)c(C)nn1-c1ccccc1`, the AC50 under setting [1] is 3.16 µM [falling, partial curve].
Regarding `Cc1cc(NC(=O)CSc2cn(CCNC(=O)c3ccc(F)cc3)c3ccccc23)no1`, the AC50 under setting [1] was 25.1 µM [falling, partial curve].
Same read-out and setting: the result for `O=C(Nc1cccc(F)c1)C1CC(=O)N(c2ccc(Br)cc2)C1` (centres undefined) reads 12.6 µM [falling, partial curve].
Take `CC(C)(C)c1ccc(OCC(=O)N(Cc2ccco2)Cc2ccccc2F)cc1`: under setting [1], the AC50 was 15.8 µM [falling, partial curve].
For the compound `COc1cc(OC)cc(-c2nnc(SCC(=O)N3CCC(C)CC3)o2)c1`, under setting [1], the AC50 was 25.1 µM [falling, single point].
On to `COc1ccc(CCNC(=O)CCn2c(=O)c3ccccc3n(CC(=O)Nc3cccc(C)c3)c2=O)cc1OC`, for which, under setting [1], the AC50 is 0.631 µM [rising, full curve, poor fit].
Still for that read-out and setting: the value for `COc1ccc(Nc2oc(-c3ccc(COc4ccc(OC)cc4)o3)nc2C#N)cc1` was 6.31 µM [rising, full curve, poor fit]; that for `CCC(C)NC(=O)C1CCN(C(=O)c2cc3sccc3n2Cc2ccc(Cl)cc2)CC1` (centres undefined) was 6.31 µM [falling, partial curve]; that for `CCc1ccccc1N1CC(c2nc3ccccc3n2CC(C)C)CC1=O` (centres undefined) was 25.1 µM [falling, single point].
Take `CCCCN(CC)c1ncnc2c1sc1nc(N3CCOCC3)c3c(c12)CCCC3`: the AC50 under setting [1] is 7.94 µM [rising, partial curve].
With `Cc1ccc(C)c(S(=O)(=O)c2nnn3c2nc(N2CCCC2)c2sccc23)c1`, the AC50 under setting [1] is 39.8 µM [falling, single point].
As for `O=C1CC(c2cccc(F)c2)C2=C(CCCC2=O)N1` (centres undefined), under setting [1], the AC50 is 5.01 µM [falling, partial curve].
`O=c1nc(-c2ccccc2)c2cc(Cl)ccc2[nH]1`: under setting [1], the concentration at half-maximal activity (AC50) was 20 µM [falling, partial curve].
The same measure, in the same setting: the result for `O=C(CSc1nc2ccccc2c(=O)n1Cc1ccco1)N1CCCCCC1` reads 15.8 µM [falling, partial curve]; that for `O=C(c1ccco1)[C@@H]1[C@@H]2C(=O)N(c3ccccc3)C(=O)[C@@H]2C2c3ccccc3C=CN21` (some centres undefined), 0.794 µM [falling, full curve]; that for `CC(C)(C)c1ccc(OCCSc2nc(-c3cccs3)nc3cc(=O)[nH]n23)cc1`, 39.8 µM [falling, single point].
For `COc1cccc2sc(Nc3nnc(-c4ccccc4Cl)o3)nc12`, the AC50 was 3.16 µM [rising, partial curve] under setting [2] and 0.398 µM [falling, partial curve] under setting [3].
Take `CC(=O)Nc1cccc(-c2nnc(SCC(=O)c3cc([N+](=O)[O-])ccc3Br)o2)c1`: the AC50 reads like this: under setting [2], 6.31 µM [rising, single point]; under setting [3], 31.6 µM [falling, single point].
Take `COc1cc(C(c2c(C)[nH][nH]c2=O)c2c(C)[nH][nH]c2=O)ccc1OC(=O)c1ccccc1F`: the AC50 under setting [1] is 6.31 µM [falling, full curve].
As for `CCCCn1c2c(c3ccccc31)CCc1nonc1-2`, the AC50 under setting [1] is 3.16 µM [rising, full curve].
The same measure, in the same setting: the result for `CC(=O)c1cccc(Nc2c3c(nc4nc(-c5cccs5)nn24)CCCC3)c1` reads 12.6 µM [falling, partial curve]; that for `COC(=O)c1ccc2oc(=O)c(S(=O)(=O)c3ccc(C)cc3)cc2c1`, 1.58 µM [falling, full curve, poor fit].
For `CCCC(=O)Nc1cccc(-c2nc3cc(C)c(C)cc3o2)c1C`, under setting [1], the AC50 is 2.51 µM [falling, full curve].
On the same count and under the same terms, the result for `COc1ccc(F)cc1NC(=O)C1CCN(c2nc(-c3ccc(OC)c(OC)c3)no2)CC1` reads 10 µM [falling, partial curve]; that for `COc1ccc(Nc2ncc(C(=O)Nc3cc(C)ccc3OC)c3ccccc23)cc1`, 3.16 µM [falling, full curve].
Same read-out and setting: the result for `O=C(COc1ccc(F)cc1)Nc1cccc(OCc2cc(=O)n3ccccc3n2)c1` reads 0.158 µM [falling, full curve]; that for `COc1ccc(NC(=O)CCc2c(C)nc3c(-c4ccccc4)c(C)nn3c2C)cc1Cl`, 12.6 µM [falling, partial curve].
Still for that read-out and setting: the result for `Cc1cc(Cl)ccc1NC(=O)CSc1nnc(Cc2cccs2)n1Cc1ccco1` reads 12.6 µM [falling, partial curve]; that for `CCOC(=O)c1nnn(C(CC)C(=O)Nc2c(C)cccc2C)c1C(=O)OCC` (centres undefined), 3.16 µM [falling, partial curve, poor fit].
`CCN(CC)C(=O)CSc1nnc2[nH]c(=O)cc(C)n12`: the AC50 under setting [1] is 0.0501 µM [rising, full curve, poor fit].
As for `CCc1ccccc1NC(=O)c1cc(-c2cccc(O)c2)on1`, the AC50 under setting [1] was 6.31 µM [falling, partial curve].
On the same count and under the same terms, the result for `Cc1ccc(NC(=O)N2CCN(c3nnc(C)c4c(C)n(-c5ccccc5)nc34)CC2)c(Cl)c1` reads 0.0794 µM [rising, full curve]; that for `O=c1oc2ccccc2c(O)c1/C=N/c1nc(-c2ccc(O)c(O)c2)cs1`, 2 µM [falling, partial curve].
Same read-out and setting: the result for `CCc1ccccc1NC(=O)CCCN1C(=O)COc2ccc(C)cc21` reads 0.2 µM [falling, full curve, poor fit]; that for `CCOc1ccc(-c2cccc(NS(=O)(=O)c3ccc(Cl)s3)c2)nn1`, 15.8 µM [falling, partial curve]; that for `Cc1ccc2c(c1)c1c(c(=O)n(-c3cccc(Cl)c3)c(=O)n1C)n2C`, 0.316 µM [falling, full curve].
For the compound `COc1ccc(C)cc1S(=O)(=O)N1CCN(c2cccc(C(F)(F)F)c2)CC1`, the AC50 under setting [1] was 39.8 µM [falling, single point].
As for `C[C@@H](COc1ccc(/C=C\c2ccccc2)cc1)[N+](C)(C)C`, the AC50 under setting [1] is 7.94 µM [falling, full curve] [measured here: IkB-luc green channel].
Same read-out and setting: the result for `CCOC(=O)c1c(NC(=O)c2cc3nc(-c4ccc(OC)cc4)cc(C(F)(F)F)n3n2)sc(C)c1C` reads 6.31 µM [rising, partial curve]; that for `CCc1cccc(NC(=O)c2c(C)oc3ncnc(N4CCCCC4)c23)c1`, 20 µM [falling, partial curve].
Still for that read-out and setting: the value for `O=C1CN(C(=O)COc2ccc(Cl)cc2Cl)C(c2ccc(F)cc2)c2cc(F)ccc2N1` (centres undefined) was 15.8 µM [falling, partial curve].
